The other results are listed elsewhere or left out.
target: OsWRKY34 (Oryza sativa, UniProt Q0JBA9 1-250); assay: protein-binding microarray (RPBM); PBS, 2% BSA, 51.3 ng/ul salmon testes DNA, 50 uM zinc acetate, 200 nM TF, 25 C, 1 h; high values mean tight binding; conditions: protein: recombinant; tags: N-terminal polyhistidine and DsRed monomer fusion (pET32a); label: CyDye5-dUTP incorporated in the synthesized complementary strand; 3' TTTTT single-stranded linker to array surface; dsDNA, one strand shown
Summary of the method: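 Polyhistidine-tagged DsRed fusions of transcription factors, joined at the N-terminus, were expressed in E. coli BL21-CodonPlus and isolated on Ni–NTA. They were incubated at 200 nM for 1 h at 25 °C on a custom Agilent array, double-stranded and BSA-blocked, in PBS with 2% BSA, salmon testes DNA and 50 µM zinc acetate. The binding signal is per-feature fluorescence intensity (arbitrary units) read on an Axon 4000B scanner after washing.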

Sequences of proteins named here, by UniProt entry; tags and fusion partners are left off.
UniProt Q0JBA9, entry or part of it: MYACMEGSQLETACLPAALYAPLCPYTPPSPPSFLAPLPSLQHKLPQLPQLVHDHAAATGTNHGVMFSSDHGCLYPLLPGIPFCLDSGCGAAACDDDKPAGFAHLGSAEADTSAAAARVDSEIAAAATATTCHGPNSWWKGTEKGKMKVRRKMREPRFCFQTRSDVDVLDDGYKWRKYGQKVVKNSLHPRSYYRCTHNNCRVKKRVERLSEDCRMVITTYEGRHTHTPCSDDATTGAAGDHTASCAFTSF

| Sequence | binding signal |
| --- | --- |
| CAAGTGGTATCAGAGCATTGTTCTCTTCTTTGGATTTTAACGGAGTCACCTAGTGCAG | 9760 fluorescence intensity (a.u.) |
| TCCGTCCCAAAAAAAACTCAACTTAGTAGGGGTGGGGACGCGGAGTCACCTAGTGCAG | 8280 fluorescence intensity (a.u.) |
| CTATATCATCTTCTTCTTCCCTGTCCCTTTCTCCTCGACGCGGAGTCACCTAGTGCAG | 8230 fluorescence intensity (a.u.) |
| GCTCTGTTAAGGGTAGAGGGGTAGGGCGGATTGAGTCTTCCGGAGTCACCTAGTGCAG | 10700 fluorescence intensity (a.u.) |
| TGTCAAGGCCTTGAGAGGCCGAGAATATTCTCTCTCGGTACGGAGTCACCTAGTGCAG | 12200 fluorescence intensity (a.u.) |
| GGGTAGGGACGAGAATGTCGCGACACACATAATATATATACGGAGTCACCTAGTGCAG | 8170 fluorescence intensity (a.u.) |
| ATCTCGCGTTCCTTGGTTAGCCTTCACTCCTTCAGCCATGCGGAGTCACCTAGTGCAG | 9120 fluorescence intensity (a.u.) |
| CTCCGTGTGCGCCACCGCCGGCCACATCCTCCCGGCGCGCCGGAGTCACCTAGTGCAG | 13000 fluorescence intensity (a.u.) |
| CATGGGAGAGGGGTGTAGAATAGTTATTCTAGGGGAGGGGCGGAGTCACCTAGTGCAG | 16300 fluorescence intensity (a.u.) |
| GCACCTGCCGAAGACCGAGTTTAGTTTTAAACTTTTTTTCCGGAGTCACCTAGTGCAG | 8860 fluorescence intensity (a.u.) |
| ATCCCAAATCACCAATTGCATTTCACCAAAAAAAAAACCTCGGAGTCACCTAGTGCAG | 15300 fluorescence intensity (a.u.) |
| TGTGATGTTAAGTGTTTCTAATTCTTGTTATTATTGTATTCGGAGTCACCTAGTGCAG | 8950 fluorescence intensity (a.u.) |
| GTCCTTGATGTTTTTTATGCTCTCCGTTCAGTGAATTATGCGGAGTCACCTAGTGCAG | 11100 fluorescence intensity (a.u.) |
| CTCACCCTGTGTCACTCTCTCGTTCTTTCTCTCCCAGCCGCGGAGTCACCTAGTGCAG | 11700 fluorescence intensity (a.u.) |
| AACAGGTGTGGTTTGTTTGTTTCCATTTTAAATTCTGTGACGGAGTCACCTAGTGCAG | 9420 fluorescence intensity (a.u.) |
| AGAGTTGAGGTCAGTTGCATTTCTTTCTTAAATACTCCCTCGGAGTCACCTAGTGCAG | 8730 fluorescence intensity (a.u.) |
| ATTTTTCCTTTTTTTTTTTTGAGTTGTGTATTCCTTACTTCGGAGTCACCTAGTGCAG | 9900 fluorescence intensity (a.u.) |
| TCCACCACCGCCTGCCTCCATCCACCTCCACTGCAACCTCCGGAGTCACCTAGTGCAG | 8120 fluorescence intensity (a.u.) |
| CATCCTGTAATTTCGCGCGCGGCATCTCTTTCTTTCGCGTCGGAGTCACCTAGTGCAG | 9240 fluorescence intensity (a.u.) |
| ATACATGCACCCTTATACTCGTCGAACGTAATATTATACACGGAGTCACCTAGTGCAG | 9350 fluorescence intensity (a.u.) |
| CGTTTCTGCCGTGCTCGCCTCTGCCTCTCTCTCTCTCATCCGGAGTCACCTAGTGCAG | 14000 fluorescence intensity (a.u.) |

| Sequence | binding signal |
| --- | --- |
| CTTGTTAAACTATTTAATATGGTTTTATGCTGTTTTGTTTCGGAGTCACCTAGTGCAG | 9180 fluorescence intensity (a.u.) |
| AATGGCTAGCGTATAATCTGTCTTGGAATCACTTTGCTGCCGGAGTCACCTAGTGCAG | 8120 fluorescence intensity (a.u.) |
| ATCGTGGAGGTTTTATATCAGCTAGTCACTTGGTTTACCGCGGAGTCACCTAGTGCAG | 9000 fluorescence intensity (a.u.) |
| ACTTTTCCGTCACATCGTTTCAATTTCAACTAAACTTTCACGGAGTCACCTAGTGCAG | 8920 fluorescence intensity (a.u.) |
| GATTCCCAGTCCGACTCAGTGTTTCCTGTCCTCGCGCAGACGGAGTCACCTAGTGCAG | 9940 fluorescence intensity (a.u.) |
| AGTTAAAACCAAATGAATATCTGCCACGCCATTGACCAAACGGAGTCACCTAGTGCAG | 8590 fluorescence intensity (a.u.) |
| TCCTAAACTTCTATATTTCCAAATTTGTGTTTTTACCATACGGAGTCACCTAGTGCAG | 8600 fluorescence intensity (a.u.) |
| TATATATATATATATATATGGGTGGTGTTCTTTTCTCTGGCGGAGTCACCTAGTGCAG | 13300 fluorescence intensity (a.u.) |
| ACTTATGTTTTCTCAAATTAAGTTATATTTGTTTTTTTTTCGGAGTCACCTAGTGCAG | 9260 fluorescence intensity (a.u.) |
| TATTACTGGCCCAATTTTTTAGCCCATTAACGATCTGTTGCGGAGTCACCTAGTGCAG | 9010 fluorescence intensity (a.u.) |
| CATGGTGTTTGGCTGTTATTTTTTTAAAAAATATTTGTTACGGAGTCACCTAGTGCAG | 9500 fluorescence intensity (a.u.) |
| ATTTTTGTTCATCTATGCGTGATTGTACTCGTCGCCCTCGCGGAGTCACCTAGTGCAG | 11100 fluorescence intensity (a.u.) |
| TGATCTCTTTCTTCTCGATCGAAGGCGAGCTTTGAGTCAACGGAGTCACCTAGTGCAG | 9230 fluorescence intensity (a.u.) |
| GTCTCTCTCTCACTGAACTTGTTGCTTCCGCGGCGACTGCCGGAGTCACCTAGTGCAG | 8830 fluorescence intensity (a.u.) |
| TAAACCCAGGGCCGCTGTCTCCGCCTCCGCCTCCGCCATGCGGAGTCACCTAGTGCAG | 9540 fluorescence intensity (a.u.) |
| GTCCATCGACCAAAGTCGTCCAAGTGCAGCATATATATAACGGAGTCACCTAGTGCAG | 9760 fluorescence intensity (a.u.) |
| TCAAATCCCACCCGTGCACTCGAGCCCCGCCACGTCCTTCCGGAGTCACCTAGTGCAG | 8550 fluorescence intensity (a.u.) |
| TGACAAGTTGAGGGACCTTCGGTGTACTTTTTCCTTGTTTCGGAGTCACCTAGTGCAG | 9100 fluorescence intensity (a.u.) |
| TAAAACACCCGGTCTCGTGTCGCTTTGATAACTGCCTCTCCGGAGTCACCTAGTGCAG | 11100 fluorescence intensity (a.u.) |
| CCCTCATCTTCTTCTGTCCTCACGGCCTCCACTTTCTGCTCGGAGTCACCTAGTGCAG | 12300 fluorescence intensity (a.u.) |
| ACATCCATCCTTTCTATGGTGATCTCCTACATGTTCTGTACGGAGTCACCTAGTGCAG | 8820 fluorescence intensity (a.u.) |

Fetched one by one from the list above (two):

| Sequence | binding signal |
| --- | --- |
| GTCCATCGACCAAAGTCGTCCAAGTGCAGCATATATATAACGGAGTCACCTAGTGCAG | 9760 fluorescence intensity (a.u.) |
| GCTCTGTTAAGGGTAGAGGGGTAGGGCGGATTGAGTCTTCCGGAGTCACCTAGTGCAG | 10700 fluorescence intensity (a.u.) |

Reference: paper PMC7819943, “Rice protein-binding microarrays: a tool to detect cis-acting elements near promoter regions in rice”
